PubChem BioAssay AID1259254 | NCATS | 2017
In all, the deposit lists about 59,000 reagents; shown is an unselected part. Over the whole deposit, about 1,550 (2.6%) got an active call. 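G2 share is only a proxy for re-replication; each gene was hit by three separate siRNAs, and active genes were retested.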 Raw values are not corrected between plates. Entries without a mark were called inactive. Reagents against one gene are numbered here. No sequences are given here. Not given: the amount of reagent.

Screen: 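Gene knock-downs that lead to re-replication, shown by excess G2 DNA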 (primary screen)
System: human HCT116 colorectal cancer cells
Reagent: single siRNA against human genes
Duration: 3 days
Read-out: 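Imaged Hoechst DNA stain sorts each cell into a cycle phase by DNA amount; per plate, G2 fraction set to 0% for non-targeting and 100% for GMNN siRNA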
Scale: G2 robust z-score and G2 cells, % of GMNN control: higher = more G2 cells, more excess DNA replication; raw share of cells in G2: higher = larger share of cells with G2 DNA content
Call rule: 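Active siRNAs have a G2 robust z of 5 or more median absolute deviations over the median, which in these data means about 38% or higher of GMNN control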

Target gene | reagent | G2 robust z-score | G2 cells, % of GMNN control | raw share of cells in G2 (%)
TOGARAM2 | 1 | -0.632 | -1.48 | 3.07
TOGARAM2 | 2 | -0.0445 | 2.65 | 3.85
TOGARAM2 | 3 | 0.231 | 4.59 | 4.21
ZAP70 | 1 | 0.39 | 5.71 | 7.36
ZAP70 | 2 | 0.999 | 9.99 | 8.83
ZAP70 | 3 | -0.156 | 1.87 | 4.28
FDFT1 | 1 | -0.208 | 1.5 | 4.19
FDFT1 | 2 | 2.02 | 17.2 | 11.5
FDFT1 | 3 | -0.766 | -2.43 | 4.34
LINC00242 | 1 | -1.54 | -7.86 | 1.53
LINC00242 | 2 | -1.54 | -7.86 | 0.951
LINC00242 | 3 | 1.55 | 13.8 | 9.01
ERFE | 1 | -0.636 | -1.51 | 2.54
ERFE | 2 | -0.847 | -2.99 | 2.83
ERFE | 3 | -0.313 | 0.768 | 3.15
CPLX3 | 1 | -0.852 | -3.03 | 2.27
CPLX3 | 2 | 1.99 | 17 | 8.9
CPLX3 | 3 | 1.44 | 13.1 | 8.69
MGAT4B | 1 | -0.157 | 1.86 | 7.12
MGAT4B | 2 | -0.333 | 0.622 | 4.36
MGAT4B | 3 | -0.645 | -1.57 | 3.33
XKR9 | 1 | 1.1 | 10.7 | 7.44
XKR9 | 2 | 2.49 | 20.5 | 12.3
XKR9 | 3 | -1.29 | -6.11 | 2.02
ACTR2 | 1 | -0.301 | 0.852 | 5.1
ACTR2 | 2 | 1.14 | 11 | 6.95
ACTR2 | 3 | 2.54 | 20.9 | 13.1
ACVR2A | 1 | -0.428 | -0.042 | 5.59
ACVR2A | 2 | 0.47 | 6.28 | 7.53
ACVR2A | 3 | -1.03 | -4.27 | 2.52
KRT17 | 1 | -0.702 | -1.97 | 4.93
KRT17 | 2 | 0.468 | 6.26 | 7.32
KRT17 | 3 | -0.833 | -2.89 | 3.14
EIF2B3 | 1 | 0.363 | 5.52 | 6.68
EIF2B3 | 2 | 0.097 | 3.65 | 6.55
EIF2B3 | 3 | -0.244 | 1.25 | 5.11
NORAD | 1 | -0.14 | 1.98 | 3.67
NORAD | 2 | -0.63 | -1.47 | 3.22
NORAD | 3 | 1.16 | 11.1 | 7.34
FREY1 | 1 | -0.135 | 2.02 | 3.54
FREY1 | 2 | 0.347 | 5.41 | 4.95
FREY1 | 3 | -1.01 | -4.14 | 2.44
PAX3 | 1 | -1.09 | -4.73 | 3.42
PAX3 | 2 | -0.54 | -0.831 | 2.92
PAX3 | 3 | -1.05 | -4.44 | 2.95
MEAF6 | 1 | 2.3 | 19.1 | 7.75
MEAF6 | 2 | 0.0711 | 3.47 | 6.09
MEAF6 | 3 | 0.624 | 7.36 | 7.91
